We go through 37 compounds from PubChem BioAssay AID2685 (National Center for Advancing Translational Sciences (NCATS), 2010).

Some of the results follow. The main result of the screen is listed elsewhere. These columns were measured beside it and carry no call. Most of these compounds were active or inconclusive in the main read-out, so they are no random draw. Potencies come from curve fits of mixed quality, noted in brackets.

This experiment can be described thus: qHTS Assay for Lipid Storage Modulators in Drosophila S3 Cells.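 On cell number change: cells counted by Cell Tracker Red CMTPX staining in the red channel.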 As to conditions: BODIPY lipid droplet fluorescence, 18-24 h; for cell number change: measured here: cell count max response, cells fed with added oleic acid. In a few lines:
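Drosophila S3 cells got compounds at several concentrations plus oleic acid (400 uM solution). Laser-scanning cytometry with 488 nm excitation read lipid droplets at 500-530 nm and cells at 575-640 nm. Percent activity was relative to 20 uM Triacsin C.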

Where [1] appears, read: measured here: lipid fluorescence (Fed channel) AC50, cells fed with added oleic acid.
Where [2] appears, read: measured here: cell number channel AC50, cells fed with added oleic acid.

One may read the AC50 as the midpoint of the concentration-response curve, whichever way the signal moves. Lower therefore signals activity at low concentration. Consider `CC(C)NC(=O)CSc1nnc(-c2ccc(S(=O)(=O)N3CCCC3)cc2)n1CC1CCCO1` (stereo unspecified), for which the cell number change was -18.9%. Besides, the AC50 under setting [1] is 16.4 µM [falling, partial curve, poor fit].

With `C[C@]12CCC(=O)C[C@@H]1CC[C@@H]1[C@@H]2CC[C@]2(C)C=CC[C@@H]12`, the cell number change was -30.6%. Under setting [2], the AC50 was 0.92 µM [falling, full curve, poor fit]. Also, the AC50 under setting [1] is 0.92 µM [falling, full curve, poor fit].

As to `Cc1nc(Nc2ccc(S(=O)(=O)N3CCCCC3C)cc2)c2nnn(Cc3ccccc3)c2n1` (stereo unspecified), the cell number change is -6.87%. Further, the AC50 under setting [1] was 29.1 µM [falling, single point].

On to `CCN(CC)S(=O)(=O)c1ccc(N2CCc3cc(OC)c(OC)cc3C2)nc1`, for which the cell number change was found to be 3.17%. Besides, under setting [1], the AC50 was 6.51 µM [rising, single point].

For the compound `Cc1ccc(SCc2[nH]nc3c2C2(C(=O)Nc4ccc([N+](=O)[O-])cc42)C(C#N)=C(N)O3)cc1` (stereo unspecified), the cell number change is -23.7%. The AC50 under setting [1] was 13 µM [falling, partial curve].

For the compound `N/C(=N\OC(=O)COc1ccccc1Cl)c1ccccn1`, the cell number change is -1.84%. Besides, under setting [1], the half-maximal activity concentration (AC50) was 3.26 µM [rising, partial curve].

`Nc1ccc2nc(COc3ccccc3)[nH]c2c1`: the cell number change is -15.7%. For the same compound, under setting [1], the AC50 was 0.00461 µM [rising, full curve, poor fit].

In the case of `O=C(c1ccco1)N1CCN(C(=O)C2CC(c3ccc(Cl)c(Cl)c3)=NO2)CC1` (stereo unspecified), the cell number change is 1.42%.

`COc1cc(C(=O)NCc2ccc(S(N)(=O)=O)cc2)ccc1OCC(=O)N1CCOCC1`: the cell number change was determined as 6.43%.

With `COc1ccc(NC(=O)c2ccc(Cl)c(S(=O)(=O)N3CC(C)OC(C)C3)c2)cn1` (stereo unspecified), the cell number change was -0.139%. Under setting [2], the AC50 was 4.11 µM [rising, single point].

Take `CCc1cccc(C)c1NC(=O)c1ccc2nc(N3CCOCC3)sc2c1`: the cell number change was 14.4%. For the same compound, under setting [1], the AC50 is 8.2 µM [rising, partial curve].

`Cc1cc(O)ccc1N/C=C(\C#N)c1nc2ccccc2o1`: the cell number change was -34.4%. The AC50 under setting [2] was 29.1 µM [falling, single point]. Also, the AC50 under setting [1] was 29.1 µM [falling, single point].

For the compound `O=C(O)c1ccc(NC(=O)c2cn(-c3ccccc3)nc2-c2ccc(Br)cc2)cc1`, the cell number change is -13%. Also, the AC50 under setting [2] is 1.16 µM [rising, single point]. Besides, the AC50 under setting [1] is 0.651 µM [rising, partial curve].

Consider `CCCn1c(SCC(=O)Nc2ccc(Cl)cn2)nnc1C1CC1`, for which the cell number change is -14.6%. Besides, the AC50 under setting [1] was 0.58 µM [rising, partial curve, poor fit].

On to `O=C(NCc1ccccn1)c1ccc(OC2CCN(Cc3ccc(CO)o3)CC2)cc1`, for which the cell number change is 11.7%. In addition, under setting [1], the AC50 was 0.366 µM [falling, full curve].

As to `O=C(CN1CCC(n2nnc3cc(F)ccc32)CC1)N1CCCc2ccccc21`, the cell number change is -0.688%. In addition, the AC50 under setting [1] is 29.1 µM [falling, single point].

Consider `CCN(Cc1ccccc1)C(c1cccs1)c1nnnn1C1CCCCC1` (stereo unspecified), for which the cell number change was -17.7%.

Consider `Cc1c(-c2nc(N)nc(Nc3ccccc3F)n2)oc2ccccc12`, for which the cell number change was -11.1%. Moreover, the AC50 under setting [1] is 0.146 µM [rising, full curve, poor fit].

As for `COc1ccc([N+](=O)[O-])cc1NC(=O)c1cc(C)c(C)o1`, under setting [1], the AC50 is 0.92 µM [rising, full curve, poor fit].

For `O=C(NCCSCc1ccco1)c1ccc(CN2CCOCC2)cc1`, the cell number change is -5.8%. The AC50 under setting [1] was 0.058 µM [falling, full curve, poor fit].

Regarding `C/C(=N\NC(=O)CSCc1ccccc1Br)c1cccc([N+](=O)[O-])c1`, the cell number change is 28.1%. The AC50 under setting [1] is 1.64 µM [rising, full curve].

Regarding `COc1ccc(CCNC(=O)c2ccccc2NC(=O)CN2CCN(c3ccccc3O)CC2)cc1`, the AC50 under setting [1] is 4.11 µM [falling, partial curve, poor fit].

Turning to `Clc1cccc2c3c([nH]c12)CCNC3`, the cell number change is -4.23%. In addition, the AC50 under setting [2] was 6.51 µM [rising, single point].

As to `CCOC(=O)C(Cc1ccccc1)c1ccnc2nc(N)nn12` (stereo unspecified), the AC50 under setting [2] is 0.708 µM [rising, single point].

Consider `CCOC(=O)C(NC(=O)CC)(Nc1sc(C)c(CC)c1C#N)C(F)(F)F` (stereo unspecified), for which the AC50 is 0.82 µM [rising, single point] under setting [2] and 5.8 µM [rising, partial curve] under setting [1].

With `CC(Oc1ccccc1)C(=O)N1CCN(c2ncccn2)CC1` (stereo unspecified), the cell number change turned out to be 1.35%. The AC50 under setting [1] is 4.11 µM [falling, single point].

`CCOC(=O)c1c(NC(=O)C(=O)N/N=C/c2ccc(OCC)cc2)sc2c1CCCCC2`: the cell number change amounted to 11.3%. In addition, the AC50 under setting [1] was 1.03 µM [rising, partial curve].

As for `O=C(Nc1ccc(Cc2ccncc2)cc1)C1CCC(N2C(=O)C3C4C=CC(C5CC45)C3C2=O)CC1` (stereo unspecified), the cell number change is -7.98%. The AC50 under setting [2] is 0.0731 µM [rising, full curve, poor fit].

As to `C=CCn1c(SCC(=O)c2c(N)n(C)c(=O)n(C)c2=O)nnc1-c1ccccc1F`, the AC50 runs as follows: under setting [2], 0.411 µM [rising, full curve]; under setting [1], 0.146 µM [rising, full curve, poor fit].

Regarding `CCN(CC)c1ccc(NC(=O)c2cc(Cl)ccc2OC)cc1`, the cell number change was 6.9%. The AC50 under setting [1] was 4.11 µM [rising, partial curve].

With `Oc1ccc(CN2CCCCC2)c2cccnc12`, the cell number change is -51.3%. For the same compound, the AC50 under setting [2] is 32.6 µM [falling, single point]. For the same compound, the AC50 under setting [1] was 29.1 µM [falling, single point].

For `COc1ccc(C(C(=O)NCC2CCCO2)N(Cc2cccs2)C(=O)c2snc(C(N)=O)c2N)cc1` (stereo unspecified), the cell number change was -36.8%.

`C=CCn1c2ccccc2c2nnc(SCc3[nH]c(=O)[nH]c3C(=O)CCCCC(=O)OCC)nc21`: the cell number change was -17.2%.

As for `COc1ccccc1NC(=O)CSc1nnc(-c2ccco2)n1Cc1ccco1`, the AC50 by setting is: under setting [2], 5.17 µM [rising, single point]; under setting [1], 5.17 µM [rising, single point].

With `COc1ccccc1CNc1cc(CSc2ccc(Cl)cc2)nc(C)n1`, the AC50 runs as follows: under setting [2], 1.84 µM [rising, partial curve]; under setting [1], 6.51 µM [rising, single point].

Turning to `N#CC(=C1CCCC1)c1nc(-c2ccccc2)cs1`, the cell number change came out at 0.768%. Also, the AC50 under setting [1] is 29.1 µM [rising, single point].

With `O=c1[nH]nc(SCCS(=O)(=O)c2ccc(F)cc2)n1-c1ccc2c(c1)OCCO2`, the cell number change was -54.8%. In addition, the AC50 under setting [2] is 29.1 µM [falling, single point]. For the same compound, under setting [1], the AC50 was 29.1 µM [falling, single point].
